The campaign covered roughly 330,000 compounds. About 7,700 (2.3%) were called active. Inconclusive means that the source gave no clear call. Such entries were picked first, then a sample of the others. Calls follow the shape of the dose curve; as a rule, active = well fitted inhibition curve with a large enough effect; inconclusive = small, poorly fitted or top-dose-only effect, or effect the other way; inactive = flat fitted curve, though single readings scatter. A potency beside an inconclusive call is a rough fit, not a confirmed value.
assay: qHTS screen for small molecules that inhibit ELG1-dependent DNA repair in human embryonic kidney (HEK293T) cells expressing luciferase-tagged ELG1; conditions: HEK293T ELG1-luciferase reporter, luminescence, 16 h, DNA damage induced by 5-fluorouridine; activity change, negative = inhibition: at 46.1 µM (top of the series); also: nearly all actives have a fitted effect of over 55% in size
Summary of the method: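 HEK293T cells expressing luciferase-tagged ELG1 (2,000/well) received 5-Fluorouridine plus compound or DMSO for 16 hr at 37 °C. Luciferase was read by ONE-Glo luminescence after 30 min at room temperature.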
% is scaled to controls: 0 for no effect and ±100 for the full control effect; potency is read from the fitted curve at half-maximal effect.

| Structure (SMILES) | Potency | activity change, negative = inhibition |
| --- | --- | --- |
| CCCCN(Cc1ccco1)C(=O)c1cc2c(=O)[nH]c3ccc(C)cc3c2s1 | inconclusive: 20.6 µM [inhibitor, single point] |  |
| CC1CCCC(NC(=O)CSc2ncccn2)C1C (centres undefined) | inconclusive: 25.9 µM [activator, single point] |  |
| C=CCc1c(C)nc(C)nc1N/N=C/c1ccccc1O | inconclusive: 16.4 µM [inhibitor, partial curve, poor fit] |  |
| CCOc1cc(/C=N/Nc2nn3cnnc3c3ccccc23)ccc1O | inconclusive: 16.4 µM [inhibitor, single point] |  |
| Clc1ccccc1-c1nc2ccccc2[nH]1 | inconclusive: 20.6 µM [activator, partial curve] |  |
| COc1ccccc1OCCNC(=O)C(c1ccccc1)c1ccccc1 | inconclusive: 16.4 µM [inhibitor, partial curve, poor fit] |  |
| COc1cc2c(cc1OC)C(c1cccs1)NCC2 (centres undefined) |  | inactive: 14.9% |
| Cc1cc(Cl)ccc1OCC(=O)NCc1ccncc1 | inconclusive: 11.2 µM [activator, partial curve, poor fit] |  |
| C/C(=N\Nc1nc(C(=O)O)cs1)c1ccccc1 | inconclusive: 18.3 µM [activator, partial curve] |  |
| COc1ccc([N+](=O)[O-])cc1N(CC1CO1)S(=O)(=O)c1ccc(C)cc1 (centres undefined) | inconclusive: 29.1 µM [activator, single point] |  |
| Cc1cccc(-n2c(O)c(C=Nc3ccc4c(c3)OCO4)c3ccccc3c2=O)n1 | inconclusive: 18.4 µM [inhibitor, single point] |  |
| CCc1ccccc1NC(=S)N=Nc1c(O)n(C)c2ccc(S(=O)(=O)N3CCOCC3)cc12 | inconclusive: 29.1 µM [activator, single point] |  |
| CCn1c(Cc2ccc(OC)cc2)nnc1SCC(=O)N1CCN(c2ccccc2)CC1 | inconclusive: 16.4 µM [inhibitor, partial curve] |  |
| COc1cc(/C=C(\C#N)c2nn(CCO)c(N)c2C#N)cc(OC)c1OC | inconclusive: 18.3 µM [activator, partial curve] |  |
| CCCSc1ccc2nc(-c3ccccc3)cn2c1 | inconclusive: 0.164 µM [activator, partial curve] |  |
| C/C(=C\C(=O)c1ccc(C)o1)Nc1ccc2c(c1)OCO2 | inconclusive: 5.8 µM [activator, partial curve] |  |
| CC(C)Oc1ccc(S(=O)(=O)N2CCCCC2)cc1NC(=O)CN1CCCC1c1cccs1 (centres undefined) | inconclusive: 1.3 µM [inhibitor, partial curve, poor fit] |  |
| COc1cccc(N/C=C/C(=O)c2ccc(OC)c(OC)c2)c1 | inconclusive: 1.3 µM [activator, partial curve] |  |
| CCOc1ccc(N(C(C)=O)C2C=CS(=O)(=O)C2)cc1 (centres undefined) |  | inactive: 9.62% |
| CCN(CC)c1ccc(/C=N/Nc2cccc(C)c2)c(O)c1 | inconclusive: 23.1 µM [activator, single point] |  |
| COc1ccc(-c2c(C#Cc3ccsc3)c3cc(-c4ccc5cc[nH]c5c4)ccc3n2C)cc1 | inconclusive: 16.4 µM [activator, partial curve] |  |
| COc1ccc(S(=O)(=O)N/N=C(/C)c2ccco2)cc1 | inconclusive: 13 µM [activator, partial curve] |  |
| Cc1c(C(=O)NCCC2=CCCCC2)oc2ccc(S(=O)(=O)N3CCOCC3)cc12 | active: 16.4 µM |  |

| Structure (SMILES) | Potency | activity change, negative = inhibition |
| --- | --- | --- |
| Cc1cccc(-n2nc3c(c2NC(=O)c2ccc(Br)o2)CSC3)c1 |  | inactive: -12.5% |
| CCNC(=O)CN(c1ccc(Br)c(C)c1)S(C)(=O)=O |  | inactive: 0.0638% |
| Cc1nc(SCC(=O)Nc2cc(S(=O)(=O)N3CCOCC3)ccc2Cl)nc(C)c1C | inconclusive: 29.1 µM [inhibitor, partial curve, poor fit] |  |
| CC(C)C(=O)N(Cc1cc(=O)[nH]c2ccccc12)c1ccccc1 | inconclusive: 3.66 µM [activator, single point] |  |
| Cc1cccc(NC(=O)c2onc3c2CCCC3)c1C | inconclusive: 16.4 µM [activator, partial curve] |  |
| Cc1nc2ccccc2cc1C(=O)N/N=C/c1ccccc1[N+](=O)[O-] | inconclusive: 23.1 µM [inhibitor, single point] |  |
| COc1ccc(/C=C/C(=O)N2CCN(c3ccccn3)CC2)cc1OC |  | inactive: -15.5% |
| Oc1ccc(/C=N/Nc2ccc(C(F)(F)F)cn2)cc1O | inconclusive: 8.2 µM [activator, partial curve] |  |
| C/C(=N\NC(=O)c1ccc(Cl)cc1)c1ccc(Br)s1 | inconclusive: 18.4 µM [activator, single point] |  |
| CCn1c(CSCc2ccc(Cl)cc2)n[nH]c1=S | inconclusive: 29.1 µM [inhibitor, single point] |  |
| CN(CC(=O)Nc1ccc(OC(F)(F)F)cc1)C(=O)Cc1ccc2c(c1)CCC2 |  | inactive: -8.19% |
| CCOc1cc(C(=O)O/N=C(\N)c2ccc([N+](=O)[O-])cc2)cc(OCC)c1OCC | inconclusive: 32.6 µM [inhibitor, partial curve, poor fit] |  |
| O=C(CN1CCCC1)N1CCCc2c1c(=O)oc1ccc(OCc3ccccc3)cc21 | inconclusive: 3.26 µM [activator, partial curve, poor fit] |  |
| CC(=O)Oc1ccc2c(=O)oc(-c3ccccc3)nc2c1 |  | inactive: -11.8% |
| Cc1ccc(C2C(C#N)=C(N)SC(N)=C2C#N)c(C)c1 | inconclusive: 16.4 µM [inhibitor, partial curve, poor fit] |  |
| C/C(=N\NC(=O)CNc1cccc(C)c1)c1ccc(Br)s1 | inconclusive: 32.6 µM [inhibitor, single point] |  |
| COc1ccc(N(C(=O)c2snc(C(N)=O)c2N)C(C(=O)NC2CCCC2)c2cc(OC)ccc2OC)c(OC)c1 (centres undefined) |  | inactive: 3.52% |
| CCCCOc1ccc(NC(=S)Nc2cc(C)nc(SCCCC)n2)cc1 |  | inactive: 23% |
| CSc1ccc(CCNC(=O)Cn2ncc3c([nH]c4ccccc43)c2=O)cc1 | inconclusive: 9.2 µM [activator, partial curve, poor fit] |  |
| CCOC(=O)c1cc2c(=O)n3ccccc3nc2n(CCOC)c1=NC(=O)c1c(-c2c(F)cccc2Cl)noc1C |  | inactive: -6.47% |
| CCn1c(SCc2nc(-c3cccs3)no2)nnc1-c1c[nH]c2ccccc12 | inconclusive: 20.6 µM [inhibitor, single point] |  |
| Cc1cccc(NC(=O)Nc2ccc(S(N)(=O)=O)cc2)c1 | inconclusive: 25.9 µM [activator, single point] |  |
| Cc1cccn2c(=O)nc(SCC(=O)c3ccccc3)nc12 | inconclusive: 10 µM [activator, partial curve] |  |

| Structure (SMILES) | Potency | activity change, negative = inhibition |
| --- | --- | --- |
| CC(=O)c1cccc(CN2CCCC(C(=O)Nc3cccc(-n4cccn4)c3)C2)c1 (centres undefined) |  | inactive: -2.29% |
| CC(=O)Nc1ccc(Cc2nc3c([nH]2)c(=O)n(C)c(=O)n3C)cc1 |  | inactive: 6.48% |
| OCCN1CCN(c2ncnc3ccc(Br)cc23)CC1 | active: 2.06 µM |  |
| CCCOP(=O)(c1ccc(N(C)C)cc1)C(Nc1ccccc1)c1ccc(C)cc1 (centres undefined) | inconclusive: 32.6 µM [inhibitor, single point] |  |
| COc1ccccc1NC(=S)N(CCCN1CCOCC1)Cc1cccs1 | inconclusive: 18.3 µM [activator, single point] |  |
| O=C(O)c1ccccc1COc1ccccc1Cl | inconclusive: 23.1 µM [activator, partial curve, poor fit] |  |
| S=c1[nH]nc(-c2cc(-c3ccccc3)n[nH]2)n1/N=C/C=C/c1ccccc1 | inconclusive: 23.1 µM [activator, partial curve, poor fit] |  |
| CN(CC(=O)Nc1ccccc1F)CC(=O)Nc1ccc(F)c(F)c1F |  | inactive: 2.65% |
| CC(C)OCCCn1c(=S)[nH]c2cc3c(cc2c1=O)OCO3 |  | inactive: -0.409% |
| CCN(CC)CCN1C(=O)C2C(C(=O)Nc3cc(C)cc(C)c3)C3C=CC2(O3)C1C(=O)NC1CCCCC1 (centres undefined) | inconclusive: 32.6 µM [activator, partial curve, poor fit] |  |
| CCn1c(=O)cc(OCC(=O)N2CCc3ccccc32)c2ccccc21 |  | inactive: 16.2% |
| CCc1nnc(NC(=O)CC(=O)Nc2ccccc2C(=O)O)s1 | inconclusive: 32.6 µM [activator, partial curve, poor fit] |  |
| CCOc1ccc2nc(Nc3nc(CSc4nnnn4-c4ccccc4)cc(=O)[nH]3)nc(C)c2c1 | inconclusive: 2.59 µM [inhibitor, partial curve, poor fit] |  |
| CCc1cc(Br)ccc1N1C(=O)C2CC=CCC2C1=O (centres undefined) | inconclusive: 16.4 µM [inhibitor, partial curve] |  |
| COc1ccccc1N(CC(=O)NCCSc1ccc(Cl)cc1)S(C)(=O)=O |  | inactive: -14.5% |
| CCCCCC(=O)N/N=C/c1ccc(N(C)C)cc1 | inconclusive: 14.6 µM [activator, partial curve] |  |
| Cc1cc(C(=O)Nc2ccc(F)cc2)c2ccccc2n1 |  | inactive: 8.87% |
| CCOc1ccccc1NC(=O)C1CCCN(S(=O)(=O)c2cccc3cccnc23)C1 (centres undefined) | inconclusive: 29.1 µM [inhibitor, single point] |  |
| C=CCNC(=O)COc1cc(C)cc(C)c1C |  | inactive: -1.7% |
| COc1cc(/C=C(\C#N)C(=O)NC2CCCCC2C)ccc1OS(=O)(=O)c1ccc(C)cc1 (centres undefined) | inconclusive: 29.1 µM [inhibitor, single point] |  |
| O=[N+]([O-])c1ccc2c(c1)[nH]c(=S)n2-c1ccccc1 |  | inactive: -4.72% |
| N=C1C(c2ccccc2)=C(O)CN1c1cccc(S(=O)(=O)N2CCCCC2)c1 |  | inactive: 13.1% |
| CCOC(=O)c1csc(Nc2nc3ccc(F)cc3s2)n1 | inconclusive: 25.9 µM [activator, single point] |  |

Entries shown so far with a nitro group on carbon, in the order listed:

| Structure (SMILES) | Potency | activity change, negative = inhibition |
| --- | --- | --- |
| COc1ccc([N+](=O)[O-])cc1N(CC1CO1)S(=O)(=O)c1ccc(C)cc1 (centres undefined) | inconclusive: 29.1 µM [activator, single point] |  |
| Cc1nc2ccccc2cc1C(=O)N/N=C/c1ccccc1[N+](=O)[O-] | inconclusive: 23.1 µM [inhibitor, single point] |  |
| CCOc1cc(C(=O)O/N=C(\N)c2ccc([N+](=O)[O-])cc2)cc(OCC)c1OCC | inconclusive: 32.6 µM [inhibitor, partial curve, poor fit] |  |
| O=[N+]([O-])c1ccc2c(c1)[nH]c(=S)n2-c1ccccc1 |  | inactive: -4.72% |

Source: PubChem BioAssay AID504467 (National Center for Advancing Translational Sciences (NCATS), 2011)
